Source: patent US12667572B2, “Tricyclic compounds useful in the treatment of cancer, autoimmune and inflammatory disorders” (SCHRÖDINGER, INC., priority 2021, dated 2026)
Structures were worked out from names or drawings and are uncertain.

Chains of the proteins cited; added tags and fusions are not shown.
UniProt Q9UDY8, whole entry: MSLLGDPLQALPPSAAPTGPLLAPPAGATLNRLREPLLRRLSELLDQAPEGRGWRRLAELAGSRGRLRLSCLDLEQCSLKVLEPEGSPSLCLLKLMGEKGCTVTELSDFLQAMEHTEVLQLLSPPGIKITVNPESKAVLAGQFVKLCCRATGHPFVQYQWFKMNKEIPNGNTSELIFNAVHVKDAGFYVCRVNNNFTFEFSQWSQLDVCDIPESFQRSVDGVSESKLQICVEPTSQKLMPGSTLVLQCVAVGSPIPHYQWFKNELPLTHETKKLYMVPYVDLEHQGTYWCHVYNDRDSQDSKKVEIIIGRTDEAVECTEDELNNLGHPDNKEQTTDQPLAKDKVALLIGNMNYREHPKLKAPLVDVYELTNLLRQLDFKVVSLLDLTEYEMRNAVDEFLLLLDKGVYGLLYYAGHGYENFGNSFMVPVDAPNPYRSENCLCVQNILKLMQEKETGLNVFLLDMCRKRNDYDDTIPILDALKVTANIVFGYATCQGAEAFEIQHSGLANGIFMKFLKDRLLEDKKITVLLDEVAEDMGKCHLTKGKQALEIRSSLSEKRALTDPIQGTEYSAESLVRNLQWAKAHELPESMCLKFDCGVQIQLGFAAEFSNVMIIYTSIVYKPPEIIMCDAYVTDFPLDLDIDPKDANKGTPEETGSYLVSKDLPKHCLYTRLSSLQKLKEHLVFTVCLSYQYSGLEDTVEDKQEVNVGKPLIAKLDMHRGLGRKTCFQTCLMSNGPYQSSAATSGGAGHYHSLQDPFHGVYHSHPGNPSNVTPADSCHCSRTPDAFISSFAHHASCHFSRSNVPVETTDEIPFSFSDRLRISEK

Target: full-length MALT1 protein His-MALT1(1-824) (Homo sapiens, UniProt Q9UDY8)
Experiment: MALT1 protease assay, Assay 2 (1 nM MALT1, Ac-LRSR-AMC substrate)
Details: read-out: MALT1 IC50 [nM] Assay 2; 1 nM MALT1, 50 μM Ac-LRSR-AMC, 2 h pre-incubation, 8 hr incubation at RT
Procedure: MALT1 protease activity was assessed in an in vitro assay using a tetrapeptide as substrate and full-length MALT1 protein His-MALT1(1-824) purified from baculovirus-infected insect cells. The tetrapeptide substrate is Ac-LRSR-AMC (SM Biochemicals) with Km measured at around 100 μM.
The final assay buffer includes 1 nM (Assay 2) or 2 nM (Assay 1) of MALT1 full-length protein, 50 μM Ac-LRSR-AMC substrate, 50 mM Tris pH 7.5, 600 mM Sodium Citrate, 1 mM DTT, 1 mM EDTA, and 0.05% BSA in 384-well plate format using black microtiter square well plates (Optiplate 384-F, Perkin Elmer).
Test compounds were dissolved in 100% DMSO at stock of 10 mM, with final DMSO concentration 0.1%. Test compounds were pre-incubated with MALT1 protein for 2 h at room temperature. Substrate was added after the pre-incubation and fluorescence signal was measured using Envision at excitation 355 nm and emission 460 nm after 8 hr incubation at RT. Increase in the assay signal was linear over this period and proportional with increase in the enzyme content.
The fluorescence units were transformed to percentage of remaining activity by using the high control (HC, median of fluorescence signal from wells containing MALT1 protein, substrate, and DMSO) and low control (LC, median of fluorescence signal from wells with substrate only) with the formula below: […]

`CC1(C)CC(C(=O)Nc2cnc(-c3nnnn3CCO)c(Cl)c2)c2cnc3cc(Cl)nn3c21` (stereo not shown) was tested, and the IC50 was 100 to 1000 nM.
